Source: publication doi:10.1101/2021.08.16.456582
Results are given in words; binding and its absence hold for the method and conditions named. Binding seen in cells or lysates may run through a third protein. For part of these data: A result given as binding can be weak or reduced; the word gives no strength.

By UniProt entry, the sequences of proteins in these tests, tags left out. Where a name states a change or a piece, a line headed by the entry shows the natural chain unless it says otherwise.
UniProt O76742: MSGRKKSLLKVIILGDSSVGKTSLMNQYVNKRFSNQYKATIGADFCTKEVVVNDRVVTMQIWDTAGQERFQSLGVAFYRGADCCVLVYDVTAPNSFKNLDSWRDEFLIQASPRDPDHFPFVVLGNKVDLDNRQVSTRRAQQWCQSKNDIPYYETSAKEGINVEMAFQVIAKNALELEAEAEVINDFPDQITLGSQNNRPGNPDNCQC
UniProt A0A0B4LF19: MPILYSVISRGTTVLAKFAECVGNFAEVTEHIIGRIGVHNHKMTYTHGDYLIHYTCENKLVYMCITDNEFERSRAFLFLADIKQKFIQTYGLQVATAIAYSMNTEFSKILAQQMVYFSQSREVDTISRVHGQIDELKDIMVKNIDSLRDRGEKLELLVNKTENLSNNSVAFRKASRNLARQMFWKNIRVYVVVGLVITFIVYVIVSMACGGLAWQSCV

Key:
[1] = biological target: 6xMyc-VAMP7 (Drosophila); experiment: co-IP
[2] = biological target: 3xHA-TBC1D15-17 (Drosophila) (UniProt Q9VPL5); experiment: co-IP

| binding [1] | binding [2] | Substance |
| --- | --- | --- |
| no binding |  | 3xFlag-Rab7^wt (from UniProt O76742 1-207) |
|  | binds | 6xMyc-VAMP7 (from UniProt A0A0B4LF19) |
|  | binds | Rab7 (endogenous, adult fly brain) (from UniProt O76742 1-207) |
